Record: PubChem BioAssay AID1159578 (Peter MacCallum Cancer Centre, 2015)
Screen: 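siRNA pools altering how lymphatic endothelial cells close a scratch wound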 (primary screen). Cells: human lymphatic endothelial cells. Knock-down reagent: siRNA pool against human genes, 40 nM. Time to read-out: 48 h after transfection. Measurement: 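High-content imaging of dye-stained cells in a scratch assay measures filled wound area and nuclei per well; duplicate means given as ratio to mock and robust z-score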. Scale: migration robust z-score: higher = faster migration into the scratch; migration relative to mock: higher = more scratch area covered than mock; nuclei per well: higher = more cells in the well. Rule for the call: 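Pools averaging fewer than 3300 nuclei are never called; remaining pools count as changed when migration robust z lies outside -2 to 2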. Meaning of the calls: active = migration changed; inactive = no migration change, or too few cells.
This is an unselected part of about 18,000 reagents tested. In the full data, about 1,030 (5.7%) were called active. 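Inactive calls also include pools with fewer than 3300 nuclei, whose migration was not assessed.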 Raw values vary from plate to plate and are shown uncorrected.

The opening 4 entries as a preview:
| Gene | migration robust z-score | migration class with cell-count check | migration relative to mock | nuclei per well, duplicate mean | call |
| --- | --- | --- | --- | --- | --- |
| TXNDC17 | 1.06 | migration z between -2 and 2; enough cells | 1.01 | 6738 | inactive |
| LBP | -1.84 | migration z between -2 and 2; enough cells | 0.45 | 5016 | inactive |
| RAD51B | 1.42 | migration z between -2 and 2; enough cells | 1.08 | 5959 | inactive |
| SLC25A48 | -0.5 | migration z between -2 and 2; enough cells | 0.76 | 5724 | inactive |

Results, repeating the preview:
| Gene | migration robust z-score | migration class with cell-count check | migration relative to mock | nuclei per well, duplicate mean | call |
| --- | --- | --- | --- | --- | --- |
| TXNDC17 | 1.06 | migration z between -2 and 2; enough cells | 1.01 | 6738 | inactive |
| LBP | -1.84 | migration z between -2 and 2; enough cells | 0.45 | 5016 | inactive |
| RAD51B | 1.42 | migration z between -2 and 2; enough cells | 1.08 | 5959 | inactive |
| SLC25A48 | -0.5 | migration z between -2 and 2; enough cells | 0.76 | 5724 | inactive |
| CCNC | 0.26 | migration z between -2 and 2; enough cells | 0.86 | 6252 | inactive |
| TEC | -1.77 | under 3300 nuclei; migration not judged | 0.46 | 3067 | inactive |
| TDRD7 | -1.14 | migration z between -2 and 2; enough cells | 0.59 | 5476 | inactive |
| TXNRD2 | -1.04 | under 3300 nuclei; migration not judged | 0.6 | 58 | inactive |
| IARS2 | 1.5 | migration z between -2 and 2; enough cells | 1.27 | 7065 | inactive |
| ZNF649 | 0.42 | migration z between -2 and 2; enough cells | 1 | 6036 | inactive |
| TNIP2 | 0.7 | migration z between -2 and 2; enough cells | 1.06 | 5286 | inactive |
| IFT43 | 0.71 | migration z between -2 and 2; enough cells | 1.07 | 5696 | inactive |
| SLC24A4 | 0.94 | migration z between -2 and 2; enough cells | 0.99 | 5768 | inactive |
| SLFN11 | -0.39 | migration z between -2 and 2; enough cells | 0.73 | 5719 | inactive |
| FANCL | 1.16 | migration z between -2 and 2; enough cells | 1.19 | 6828 | inactive |
| ADGRF1 | 1.12 | migration z between -2 and 2; enough cells | 1.02 | 5970 | inactive |
| C1GALT1 | -0.29 | migration z between -2 and 2; enough cells | 0.75 | 5461 | inactive |
| OSR1 | 0.85 | migration z between -2 and 2; enough cells | 1.1 | 5484 | inactive |
| TMEM202 | -0.6 | migration z between -2 and 2; enough cells | 0.73 | 4321 | inactive |
| ETV3 | -1.22 | migration z between -2 and 2; enough cells | 0.57 | 5496 | inactive |
| IFIT1B | 0.92 | migration z between -2 and 2; enough cells | 1.12 | 6208 | inactive |
| WDR45 | 0.5 | migration z between -2 and 2; enough cells | 1.02 | 5562 | inactive |
| PLPP1 | -2.12 | migration z below -2; enough cells | 0.4 | 7196 | active |
| H3C6 | 0.26 | migration z between -2 and 2; enough cells | 0.95 | 5614 | inactive |
| MMRN1 | 1.4 | migration z between -2 and 2; enough cells | 1.25 | 5844 | inactive |
| GARS1 | 1.12 | migration z between -2 and 2; enough cells | 1.02 | 5048 | inactive |
| ARL6IP1 | -2.67 | migration z below -2; enough cells | 0.19 | 5854 | active |
| VSTM1 | -2.54 | migration z below -2; enough cells | 0.22 | 3360 | active |
| MTMR7 | -0.68 | migration z between -2 and 2; enough cells | 0.68 | 4872 | inactive |
| DMD | -1.08 | migration z between -2 and 2; enough cells | 0.6 | 4674 | inactive |
| FAT4 | -0.18 | migration z between -2 and 2; enough cells | 0.84 | 4720 | inactive |
| CRYBA4 | 0.26 | migration z between -2 and 2; enough cells | 0.96 | 5758 | inactive |
| PICALM | 0.23 | migration z between -2 and 2; enough cells | 0.94 | 6210 | inactive |
| PGK2 | -1.02 | migration z between -2 and 2; enough cells | 0.61 | 4450 | inactive |
| SPATA20 | -0.45 | migration z between -2 and 2; enough cells | 0.77 | 5230 | inactive |
| RBFOX2 | -0.7 | migration z between -2 and 2; enough cells | 0.7 | 3918 | inactive |
| GPX8 | 0.51 | migration z between -2 and 2; enough cells | 1.02 | 5799 | inactive |
| GPCPD1 | 0.43 | migration z between -2 and 2; enough cells | 0.99 | 5247 | inactive |
| NPY4R | -0.42 | migration z between -2 and 2; enough cells | 0.72 | 5576 | inactive |
